Experimental data reported in publication doi:10.1101/061432.
For at least one entry, the source does not settle the construct or the ends of the probe.

Legend:
MBP-CR3HD CUX1-Ancestral = assay: EMSA; conditions: 1 mM MgCl2, 1 ug poly(dI-dC)
[1] = tested on: MBP-CR3HD CUX1-Δ4aa (Phalacrocorax harrisi (Galapagos cormorant)); assay: EMSA; conditions: 1 mM MgCl2, 1 ug poly(dI-dC), shift equal to Ancestral

“TCGAGACGGTATCGATAAGCTTCTTTTC (double strand) [CUX1 CR3HD target probe]”: binds (MBP-CR3HD CUX1-Ancestral); binds [1].
